Test results taken from US12472223B2, “Methods for reducing symptoms of multiple sclerosis using a six-amino acid long peptide that inhibits CD40-CD154 interaction” (OP-T LLC, priority 2019, dated 2025).
“And” between values parts separate entries of the source, which are not always exact repeats. Equal values may be shown once. “Also recorded” adds a separate entry of the source. At least one peptide structure holds a part that was inferred or is arguable (an end, a ring closure or a residue).

Legend:
[1] = tested on: pancreas of NOD mice; test: Insulin granulation of the pancreas in peptide-reversed diabetic NOD mice; type: in vivo, mouse; conditions: six weeks after reversal of hyperglycemia, aldehyde/fuchsin stain, versus irrelevant peptide
[2] = tested on: newly diabetic NOD mice; test: Reversal of hyperglycemia in newly diabetic NOD mice; type: in vivo, mouse
[3] = tested on: B cells; test: FITC-labeled 15-mer peptide binding to B cells (flow cytometry); set-up: species or system mouse; conditions: spleen B cells of NOD mice, CD19+ CD21+ gated
[4] = tested on: CD40 positive cells in the blood; test: Biotin-conjugated 15-mer peptide binding to whole blood cells of type-I diabetic and non-diabetic subjects; set-up: species or system human; conditions: type-I diabetes patients versus non-diabetic controls, absorbance at 405 nm
[5] = tested on: NOD mice; test: Development of diabetes in NOD mice treated with CD154 peptides; type: in vivo, mouse; conditions: 100 μg peptide into tail vein of 8-9 week old NOD mice, again after 3 days, then weekly; diabetes = blood glucose >250 mg/dL for three consecutive days
Experimental: Peptides were designed based on the amino acid sequence of mouse CD154 protein (SEQ ID NO:1) in the SwissPro database. These pre-designed peptides were then ordered from as made-to-order by New England Peptide. The lyophilized peptides were suspended in phosphate buffered saline at 1 mg/ml. 100 μg of a particular peptide was then injected into the tail vein of 8-9 week old NOD mice. Control mice received 100 μl of phosphate buffered saline. This is well before the onset of diabetes, but after damage to pancreatic islets has begun. Three days after the initial injection, another 100 μg of peptide (or 100 μl of phosphate buffered saline in the case of the Control mice) was injected into the tail vein. Mice were then injected with peptide (or phosphate buffered saline) on a weekly basis. At 10 weeks of age, mice were monitored for diabetes, as indicated by a blood glucose level greater than 250 mg/dL for three consecutive days. During this time, blood was also taken from the tail vein, or by sub-mandibular venal puncture, and the level of CD4+ and CD8+ cells determined by flow cytometry using antibodies for CD4 protein and CD8 protein.

`CSCC[C@H](NC(=O)[C@@H](NC(=O)[C@H](Cc1ccc(O)cc1)NC(=O)[C@H](Cc1ccc(O)cc1)NC(=O)CNC(=O)[C@H](CCCCN)NC(=O)[C@H](CCCCN)NC(=O)[C@H](C)NC(=O)[C@H](Cc1c[nH]c2ccccc12)NC(=O)[C@H](CCC(N)=O)NC(=O)[C@H](CC(C)C)NC(=O)[C@@H](N)C(C)C)[C@@H](C)O)C(=O)N[C@@H](CCCCN)C(=O)N[C@@H](CO)C(=O)N[C@@H](CC(N)=O)C(=O)O` [15-mer peptide, VLQWAKKGYYTMKSN] was tested. Which “insulin granulation of the pancreas” value [1] did it give?
The value was “preserved insulin granules in the majority of the mice”.

What about the “reversal of hyperglycemia in already diabetic mice” value ([2]; 100 μg IV, weekly for ten weeks) of the same molecule?
The value was “can reverse hyperglycemia”.

What about the “reversal of hyperglycemia, share of mice” value ([2]; newly hyperglycemic/diabetic NOD mice, 100 μg 15-mer) of the same molecule?
The value was 80% and 56%.

What about the “return of hyperglycemia after cessation of the treatment” value ([2]; treatment stopped after ten weeks) of the same molecule?
Its value is at most 7 weeks.

And the “B cells that bound the 15-mer peptide” value [3]?
The value was 8%.

What about the “15-mer peptide binding activity of blood cells” value [4] of the same molecule?
Its value is “higher 15-mer peptide binding activity”.

What about the “development of diabetes in NOD mice” value [5] of the same molecule?
Its value is “prevented the onset of diabetes; also recorded: highly efficacious in preventing diabetes onset”.
